Reference: paper PMC9551088
No constants are given. Whether binding was seen depends on the method and setting. In cells and extracts the contact can be indirect. Sequences can lack the tags named with a protein. Each block holds one binder with its values, some of them ahead of it.

Sequences of proteins named here, by UniProt entry; tags and fusion partners are left off.
UniProt Q9Y4X5: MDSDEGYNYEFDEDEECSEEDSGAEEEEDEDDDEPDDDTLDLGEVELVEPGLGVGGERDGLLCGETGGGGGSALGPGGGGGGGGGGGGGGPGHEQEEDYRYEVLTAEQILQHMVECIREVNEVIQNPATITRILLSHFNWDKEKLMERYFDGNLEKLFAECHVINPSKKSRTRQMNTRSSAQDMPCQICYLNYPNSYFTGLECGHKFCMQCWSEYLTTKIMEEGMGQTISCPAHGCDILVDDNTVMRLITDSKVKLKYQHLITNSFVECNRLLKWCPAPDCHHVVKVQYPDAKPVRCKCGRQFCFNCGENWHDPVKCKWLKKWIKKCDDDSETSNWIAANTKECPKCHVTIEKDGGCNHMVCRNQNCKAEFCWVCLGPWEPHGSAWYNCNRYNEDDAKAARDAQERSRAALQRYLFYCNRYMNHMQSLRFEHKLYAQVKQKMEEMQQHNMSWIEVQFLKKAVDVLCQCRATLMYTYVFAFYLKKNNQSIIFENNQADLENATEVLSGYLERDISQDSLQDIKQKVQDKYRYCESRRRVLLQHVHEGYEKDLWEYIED

Assays:
[1] = biological target: FLAG-ARIH1 (human), Q9Y4X5; test: co-IP; conditions: remark: other sources report otherwise
[2] = biological target: FLAG-ARIH1 (human) (UniProt Q9Y4X5); test: co-IP

binding [1]: no binding
B1: HA-RIG-I, O95786 1-925 (protein)
chain: MTTEQRRSLQAFQDYIRKTLDPTYILSYMAPWFREEEVQYIQAEKNNKGPMEAATLFLKFLLELQEEGWFRGFLDALDHAGYSGLYEAIESWDFKKIEKLEEYRLLLKRLQPEFKTRIIPTDIISDLSECLINQECEEILQICSTKGMMAGAEKLVECLLRSDKENWPKTLKLALEKERNKFSELWIVEKGIKDVETEDLEDKMETSDIQIFYQEDPECQNLSENSCPPSEVSDTNLYSPFKPRNYQLELALPAMKGKNTIICAPTGCGKTFVSLLICEHHLKKFPQGQKGKVVFFANQIPVYEQQKSVFSKYFERHGYRVTGISGATAENVPVEQIVENNDIIILTPQILVNNLKKGTIPSLSIFTLMIFDECHNTSKQHPYNMIMFNYLDQKLGGSSGPLPQVIGLTASVGVGDAKNTDEALDYICKLCASLDASVIATVKHNLEELEQVVYKPQKFFRKVESRISDKFKYIIAQLMRDTESLAKRICKDLENLSQIQNREFGTQKYEQWIVTVQKACMVFQMPDKDEESRICKALFLYTSHLRKYNDALIISEHARMKDALDYLKDFFSNVRAAGFDEIEQDLTQRFEEKLQELESVSRDPSNENPKLEDLCFILQEEYHLNPETITILFVKTRALVDALKNWIEGNPKLSFLKPGILTGRGKTNQNTGMTLPAQKCILDAFKASGDHNILIATSVADEGIDIAQCNLVILYEYVGNVIKMIQTRGRGRARGSKCFLLTSNAGVIEKEQINMYKEKMMNDSILRLQTWDEAVFREKILHIQTHEKFIRDSQEKPKPVPDKENKKLLCRKCKALACYTADVRVIEECHYTVLGDAFKECFVSRPHPKPKQFSSFEKRAKIFCARQNCSHDWGIHVKYKTFEIPVIKIESFVVEDIATGVQTLYSKWKDFHFEKIPFDPAEMSK

binding [2]: no binding
B2: HA-IRF3 (protein, UniProt Q14653 1-427)
chain: MGTPKPRILPWLVSQLDLGQLEGVAWVNKSRTRFRIPWKHGLRQDAQQEDFGIFQAWAEATGAYVPGRDKPDLPTWKRNFRSALNRKEGLRLAEDRSKDPHDPHKIYEFVNSGVGDFSQPDTSPDTNGGGSTSDTQEDILDELLGNMVLAPLPDPGPPSLAVAPEPCPQPLRSPSLDNPTPFPNLGPSENPLKRLLVPGEEWEFEVTAFYRGRQVFQQTISCPEGLRLVGSEVGDRTLPGWPVTLPDPGMSLTDRGVMSYVRHVLSCLGGGLALWRAGQWLWAQRLGHCHTYWAVSEELLPNSGHGPDGEVPKDKEGGVFDLGPFIVDLITFTEGSGRSPRYALWFCVGESWPQDQPWTKRLVMVKVVPTCLRALVEMARVGGASSLENTVDLHISNSHPLSLTSDQYKAYLQDLVEGMDFQGPGES

binding [2]: no binding
B3: HA-TBK1 (protein, UniProt Q9UHD2 1-729)
chain: MQSTSNHLWLLSDILGQGATANVFRGRHKKTGDLFAIKVFNNISFLRPVDVQMREFEVLKKLNHKNIVKLFAIEEETTTRHKVLIMEFCPCGSLYTVLEEPSNAYGLPESEFLIVLRDVVGGMNHLRENGIVHRDIKPGNIMRVIGEDGQSVYKLTDFGAARELEDDEQFVSLYGTEEYLHPDMYERAVLRKDHQKKYGATVDLWSIGVTFYHAATGSLPFRPFEGPRRNKEVMYKIITGKPSGAISGVQKAENGPIDWSGDMPVSCSLSRGLQVLLTPVLANILEADQEKCWGFDQFFAETSDILHRMVIHVFSLQQMTAHKIYIHSYNTATIFHELVYKQTKIISSNQELIYEGRRLVLEPGRLAQHFPKTTEENPIFVVSREPLNTIGLIYEKISLPKVHPRYDLDGDASMAKAITGVVCYACRIASTLLLYQELMRKGIRWLIELIKDDYNETVHKKTEVVITLDFCIRNIEKTVKVYEKLMKINLEAAELGEISDIHTKLLRLSSSQGTIETSLQDIDSRLSPGGSLADAWAHQEGTHPKDRNVEKLQVLLNCMTEIYYQFKKDKAERRLAYNEEQIHKFDKQKLYYHATKAMTHFTDECVKKYEAFLNKSEEWIRKMLHLRKQLLSLTNQCFDIEEEVSKYQEYTNELQETLPQKMFTASSGIKHTMTPIYPSSNTLVEMTLGMKKLKEEMEGVVKELAENNHILERFGSLTMDGGLRNVDCL
